Measurements reported in PubChem BioAssay AID1259405 (NCATS, 2018)
Aim: 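Mouse-designed siRNAs used to find CHO productivity engineering targets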 (primary screen). Cell system: Chinese hamster CHO-K1 ovary cells with stable secreted eGFP expression. Reagents: single siRNA against mouse genes, 0.8 pmol siRNA per well (2 µl of 400 nM stock). Timing: 3 days. Read-out: 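Per-well intracellular GFP measured by laser scanning cytometry, plus viability from ATP luminescence, each relative to plate median of non-targeting control wells, in %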. Reading the numbers: GFP, % of control: higher = more GFP per well, higher productivity; viability (ATP), % of control: higher = more viable cells (more ATP). Rule for the call: 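Called active when intracellular GFP, relative to negative control, is at or above 120%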.
This is a random part of about 50,000 deposited reagents. Over the whole deposit, about 4,000 (8%) got an active call. 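Mouse siRNA library applied to hamster cells; one well for each siRNA.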 A number with no mark means an inactive call. The numbers tell different reagents against one gene apart.

no.	target	reagent no.	GFP, % of control	viability (ATP), % of control
1	Zfp51	1	57.5	54.8
2	Zfp51	2	71.1	76.4
3	Zfp51	3	76.3	35.3
4	Pramel48	1	56.7	63.6
5	Pramel48	2	71.9	35.4
6	Pramel48	3	101	87.7
7	Tgfb1i1	1	64.6	49.8
8	Tgfb1i1	2	51.7	63.9
9	Gmfb	1	65.7	61.5
10	Gmfb	2	12.1	15.4
11	Gmfb	3	71.7	62.7
12	Ear6	1	73.1	48
13	Ear6	2	69.3	91.4
14	Ear6	3	56.2	61.9
15	Tmem168	1	81.4	72.9
16	Tmem168	2	70	92.6
17	Tmem168	3	83.3	74.3
18	Csf2ra	1	190 (active)	142
19	Csf2ra	2	79.3	55.5
20	Csf2ra	3	94.9	84.9
21	Rxylt1	1	75.4	103
22	Rxylt1	2	107	125
23	Rxylt1	3	142 (active)	115
24	Ptprh	1	176 (active)	120
25	Ptprh	2	75.1	62.1
26	Ptprh	3	95.4	119
27	Fzd6	1	67.4	79.9
28	Fzd6	2	50.6	56.8
29	Sema3d	1	85.8	78
30	Sema3d	2	95.5	68
31	Sema3d	3	91.1	75.8
32	Ccl2	1	112	103
33	Ccl2	2	65.6	90.1
34	Appbp2	1	70	51.8
35	Appbp2	2	73.8	65.3
36	Appbp2	3	107	71.9
37	Or52b3	1	115	83.8
38	Or52b3	2	64.2	87
39	Or52b3	3	28.4	87.2
40	Cul4a	1	73.1	86.5
41	Cul4a	2	52.3	74.4
42	Cul4a	3	66.3	98.6
43	Zfp85	1	106	103
44	Zfp85	2	81.8	62.1
45	Or5ap2	1	73.8	77
46	Or5ap2	2	76.7	100
47	Or5ap2	3	64.1	39.4
48	Fpr-rs3	1	37.4	43.7
49	Fpr-rs3	2	65.4	92.1
50	Fpr-rs3	3	59.4	69.9
51	Fundc1	1	60.2	75.9
52	Fundc1	2	83.6	87.9
53	Fundc1	3	65.4	58.1
54	Wdr41	1	49.3	50.4
55	Wdr41	2	74.9	81.3
56	Wdr41	3	109	110
57	Slk	1	45.5	47.8

Limited to “GFP, % of control”, for 6 of the entries above:
Fzd6 #2: 50.6
Sema3d #1: 85.8
Sema3d #2: 95.5
Sema3d #3: 91.1
Ccl2 #1: 112
Ccl2 #2: 65.6
